The target of the experiment is T1, factor XIIa (UniProt P00748 20-615, limits assumed).
T1 construct: also called fXIIa
T1 sequence (looked up): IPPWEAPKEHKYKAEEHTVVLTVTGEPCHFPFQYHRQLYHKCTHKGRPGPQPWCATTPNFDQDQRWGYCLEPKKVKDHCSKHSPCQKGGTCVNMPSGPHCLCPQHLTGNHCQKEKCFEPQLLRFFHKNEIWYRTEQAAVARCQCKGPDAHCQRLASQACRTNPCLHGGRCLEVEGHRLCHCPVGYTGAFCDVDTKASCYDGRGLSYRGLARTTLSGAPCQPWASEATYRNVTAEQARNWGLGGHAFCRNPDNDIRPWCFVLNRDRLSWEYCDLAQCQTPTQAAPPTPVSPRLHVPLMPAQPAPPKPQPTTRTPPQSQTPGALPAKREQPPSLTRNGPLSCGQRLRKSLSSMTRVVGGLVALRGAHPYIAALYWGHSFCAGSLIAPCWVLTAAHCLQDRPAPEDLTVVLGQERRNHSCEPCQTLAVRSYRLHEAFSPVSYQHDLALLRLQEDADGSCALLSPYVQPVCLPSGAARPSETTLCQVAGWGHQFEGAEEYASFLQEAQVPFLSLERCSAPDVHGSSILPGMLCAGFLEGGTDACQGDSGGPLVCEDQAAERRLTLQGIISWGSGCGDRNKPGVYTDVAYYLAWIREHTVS
Nature of the experiment: chromogenic protease inhibition test in buffer.

Where a chain is given by its changes, count along the chain named. No constants are given. Whether binding was seen depends on the method and setting. Some binding calls cover weakened binding; strength is not graded here. Tags and fused reporters may be left off the sequences shown.

B1: native infestin-4, fusion protein with thioredoxin I E. coli containing polyhistidine clusters (other)
chain: EVRNPCACFRNYVPVCGSDGKTYGNPCMLNCAAQTKVPGLKLVHEGRCQRSNVEQF
notes: It says MutB differs from it at positions 9, 12 and 14 only; also called Inf4; not shown: thioredoxin I of E. coli, fusion partner; polyhistidine clusters
Turning to B1, the binding entry is given as “binds”.

B2: infestin-4 mutant MutB, fusion protein with thioredoxin I E. coli containing polyhistidine clusters (protein, not shown: large carriers; small tags and cut ends)
chain: B1 chain with F9T, Y12F, P14A
In the case of B2, the binding entry was “binds”.

The record behind these values is patent US10006080B2, “High-selectivity contact activation inhibitor based on infestin-4” (OBSCHESTVO S OGRANICHENNOY OTVETSTVENNOSTYU …, priority 2013, dated 2018).
